# Experimental data reported in PubChem BioAssay AID2685 (National Center for Advancing Translational Sciences (NCATS), 2010).
# The list shows a part of the results. These are further read-outs of the screen, such as a control signal, another cell line or another target. No call is given for them. The list favours compounds with an active or inconclusive main result. The note in brackets gives the kind of curve behind each potency; many fits are weak.
# Experiment: qHTS Assay for Lipid Storage Modulators in Drosophila S3 Cells;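 on cell number change: cells counted by Cell Tracker Red CMTPX staining in the red channel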
# Conditions: BODIPY lipid droplet fluorescence, 18-24 h; for cell number change: measured here: cell count max response, cells fed with added oleic acid
# How it was run: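 Drosophila S3 cells loaded with oleic acid (400 uM, as added) and compounds at several concentrations; lipid droplets imaged by 488-nm laser-scanning cytometry, 500–530 nm intensity and object ratio to cell channel. Percent activity normalized to 20 uM Triacsin C.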
# [1] = measured here: lipid fluorescence (Fed channel) AC50, cells fed with added oleic acid
# [2] = measured here: cell number channel AC50, cells fed with added oleic acid
Compound,cell number change [%],AC50 [1],AC50 [2]
Cc1cc2cc(CNC(=O)C(C)Oc3ccccc3)ccc2n1C (configuration not stated),19.2,"4.61 µM [rising, full curve]",–
Cc1nc(-c2ccccn2)nc(SCC(=O)N2CCOCC2)c1Cl,18.1,"25.9 µM [rising, single point]",–
Cc1ccc(Oc2ccc(NC(=O)CSc3n[nH]c(N)n3)cc2)cc1,-1.5,"0.82 µM [rising, full curve, poor fit]","5.17 µM [rising, single point]"
O=C(CCOc1ccccc1)Nc1ccc(S(=O)(=O)Nc2ncccn2)cc1,9.34,"3.66 µM [rising, partial curve]",–
COC(=O)Cc1[nH]n(-c2nc3ccccc3s2)c(=O)c1C(C)=Nc1ccc(OC)cc1,-57.7,"1.64 µM [falling, partial curve, poor fit]","32.6 µM [falling, partial curve]"
Cc1cccc2sc(NC(=O)CN(C)S(=O)(=O)c3ccc(Br)s3)nc12,-1.08,"4.11 µM [rising, partial curve, poor fit]","0.184 µM [rising, full curve, poor fit]"
CNC(=S)NNc1ccccc1[N+](=O)[O-],-18.7,–,–
CCc1nccn1S(=O)(=O)c1cc(C)c(OC)cc1C,-43.5,"0.651 µM [falling, single point]","29.1 µM [falling, single point]"
COC(C(=O)Nc1cccc(F)c1)c1ccccc1 (configuration not stated),4.33,"0.092 µM [falling, full curve, poor fit]",–
CCOc1cccc(CNc2ccc(O)cc2)c1OCc1ccc(Cl)cc1Cl,-1.23,"25.9 µM [falling, partial curve]",–
COc1cc2[nH]c(C(=O)N3CCc4ccccc43)cc2c(OC)c1OC,15,"4.61 µM [rising, partial curve]",–
Cc1nc2sc3c(NCc4ccco4)ncnc3c2c2c1COC(C)(C)C2,-11.3,"14.6 µM [falling, single point]",–
Cc1cc2c(cc1S(=O)(=O)NCCc1ccc(Cl)cc1)OCC(=O)N2,0.865,"32.6 µM [falling, single point]",–
Cc1ccc(CSc2nnc(-c3cccnc3)o2)cc1,29.3,–,"0.82 µM [rising, full curve, poor fit]"
CCOC(=O)C1=C(O)c2ccccc2C(=O)/C1=C\c1ccc(CC)cc1,-103,"29.1 µM [falling, single point]","10.3 µM [falling, partial curve, poor fit]"
CCOc1ccc(-c2csc(NC(=O)C3CCCO3)n2)cc1 (configuration not stated),–,–,"6.51 µM [rising, single point]"
CCOC(=O)c1ccc(NC(=S)NNC(C)(C)C)cc1,5.19,"0.651 µM [falling, single point]",–
CC(=O)c1ccc(-c2cccs2)s1,-51.5,–,–
COC(=O)c1nc(NC(=O)c2ccc(Br)cc2)n[nH]1,3.53,"29.1 µM [rising, single point]",–
CC1=C(C)/C(=N/OC(=O)c2cccc([N+](=O)[O-])c2)C=CC1=O,-64.2,"11.6 µM [falling, partial curve]","13 µM [falling, partial curve]"

Compound,cell number change [%],AC50 [1],AC50 [2]
Cc1cc(C)nc(SCC(=O)Nc2ccc(S(=O)(=O)N3CCCCC3)cc2)n1,83.8,"0.58 µM [rising, single point]","2.91 µM [rising, full curve]"
Cc1cccc(-c2nc(CSc3nc4c(c(=O)[nH]3)CCC4)c(C)o2)c1,19.4,"9.2 µM [rising, partial curve]",–
CCOc1ccc(N(C(C)C(=O)NN=C2CCCCCCC2)S(C)(=O)=O)cc1 (configuration not stated),24.5,"29.1 µM [rising, single point]",–
O=C1C=C(NCC2CCCO2)C2(CCCCC2)O1 (configuration not stated),110,–,"4.11 µM [rising, full curve, poor fit]"
C/C(=N\NC(=O)c1ccn(C)n1)c1ccc(NC(=O)C2CCC2)cc1,–,"10.3 µM [falling, partial curve]",–
COC(=O)CS(=O)(=O)c1nnc([C@H](Cc2ccccc2)NC(=O)OC(C)(C)C)o1,-146,"25.9 µM [falling, partial curve]","25.9 µM [falling, partial curve]"
COc1ccc(C(=O)NCCc2nnc3ccc(SCC(=O)N4CCCC4)nn23)cc1,-9.72,"0.731 µM [rising, single point]",–
COCc1cc(=O)[nH]c2cc(NC(=O)C(F)(F)F)c(C)cc12,-8.92,–,–
COc1ccc(-n2ncc3c(=O)n(CC(=O)Nc4ccc5c(c4)OCCO5)cnc32)cc1,34.8,"29.1 µM [falling, single point]","16.4 µM [rising, single point]"
CC(C)C(NC(=O)C1CCC(C(C)(C)C)CC1)C(=O)NCCCN1CCCCC1 (configuration not stated),-39.2,"0.184 µM [falling, full curve, poor fit]",–
C=C[C@@H]1c2c(F)cccc2N(S(=O)(=O)c2ccc(C)cc2)[C@H](c2ccc(OC(C)=O)cc2)C1(C#N)C#N,-4.42,–,"6.51 µM [falling, single point]"
Cc1cc(NC(=O)Nc2ccc(OCc3ccccc3)cc2)n(C)n1,9.41,"0.164 µM [rising, full curve, poor fit]",–
Cc1cc(Cl)c(S(=O)(=O)NCC2CCCO2)cc1OCC(N)=O (configuration not stated),17.9,"18.4 µM [rising, single point]",–
N#CC1=C(N)N=C(SCc2cccc3ccccc23)C(C(N)=O)C12CCCCC2 (configuration not stated),-65.2,"29.1 µM [falling, single point]","29.1 µM [falling, single point]"
COc1cccc(C(=O)Nc2ccc(S(=O)(=O)Nc3onc(C)c3C)cc2)c1,-93.1,–,"0.58 µM [falling, full curve]"
O=C(O)c1ccc(NCc2cccnc2)cc1,-10.2,–,–
COc1ccc(C(=O)N/C(=C\c2ccccc2)C(=O)NCCCn2ccnc2)cc1,-10.5,–,–
COCCn1c(COc2cccc(OC)c2)nnc1SCC(=O)NC1CCCCC1,0.427,–,–
CCN(CC)CCNC(=O)c1ccc(NC(=O)CC(NC(=O)c2ccccc2Cl)c2ccccc2)cc1 (configuration not stated),-5.41,"6.51 µM [rising, single point]",–
Nc1n[nH]c(CCCO)n1,-16.7,"0.00517 µM [falling, full curve, poor fit]","6.51 µM [rising, single point]"

# Entries shown so far containing a cyano group, in the order listed:
Compound,cell number change [%],AC50 [1],AC50 [2]
C=C[C@@H]1c2c(F)cccc2N(S(=O)(=O)c2ccc(C)cc2)[C@H](c2ccc(OC(C)=O)cc2)C1(C#N)C#N,-4.42,–,"6.51 µM [falling, single point]"
N#CC1=C(N)N=C(SCc2cccc3ccccc23)C(C(N)=O)C12CCCCC2 (configuration not stated),-65.2,"29.1 µM [falling, single point]","29.1 µM [falling, single point]"

# (next part)

Compound,cell number change [%],AC50 [1],AC50 [2]
CN(Cc1cccnc1)C(=O)c1cc(COc2ccc3ncccc3c2)on1,-44.8,"11.6 µM [falling, partial curve]","2.31 µM [falling, full curve]"
CC(=O)Nc1ccc(Nc2cc(C)nc3c(-c4ccc(Cl)cc4)cnn23)cc1,-20.6,–,–
Cc1ccc(C2C(N)C(=O)N2c2ccc(C)cc2)cc1 (configuration not stated),13.5,"4.61 µM [falling, full curve, poor fit]",–
COC(=O)Nc1ccc(S(=O)(=O)N2CCCCC2C(=O)NCc2ccco2)cc1 (configuration not stated),54,–,"8.2 µM [rising, single point]"
Cc1cc2oc(C(=O)NCc3ccc4c(c3)OCO4)c(C)c2cc1C,–,–,"2.06 µM [rising, single point]"
COc1cc2c(cc1OC)C(CC(=O)O)N(C(=O)CC1CCCC1)CC2 (configuration not stated),-7.89,–,–
Cc1cc(C)n(C(C)CC(=O)Nc2ccc(-c3ccno3)cc2)n1 (configuration not stated),-15.2,"25.9 µM [falling, single point]",–
COc1ccc(/C=C(/NC(=O)c2ccco2)C(=O)Nc2ccc(C(C)=O)cc2)cc1,62.5,–,"25.9 µM [rising, partial curve, poor fit]"
Cc1c(C(N)=O)c(N)c(C(=O)c2ccccc2)n1-c1ccccc1,2.06,"0.00461 µM [rising, full curve, poor fit]",–
O=C(CN1C(=O)c2ccccc2S1(=O)=O)NCCSc1ccccc1,-45.4,"0.146 µM [falling, partial curve]","2.06 µM [falling, full curve, poor fit]"
CCOC(=O)C1(Cc2ccc(OC)cc2)CCN(C(=O)CN2CCOC2=O)CC1,8.87,"6.51 µM [falling, partial curve]",–
O=[N+]([O-])c1ccc(N/N=C/c2c[nH]c3ccccc23)c(S(=O)(=O)Nc2ccc(Cl)cc2)c1,-2.94,"0.092 µM [falling, full curve, poor fit]",–
COc1ccccc1Cn1c(=S)[nH]c2cc(C(=O)NCCN3CCOCC3)ccc2c1=O,1.94,–,–
CCC(c1nnnn1Cc1ccccc1)N(Cc1ccco1)Cc1cc2cc(OC)ccc2[nH]c1=O (configuration not stated),-12.6,"0.0058 µM [rising, full curve, poor fit]",–
CCc1nn(C)c(-c2n[nH]c(=S)n2N)c1Cl,20.1,"1.84 µM [rising, partial curve]",–
Cc1nc2sc(C(c3cccc(F)c3)N3CCOCC3)c(O)n2n1 (configuration not stated),–,"0.82 µM [falling, single point]",–
CCn1c(C)nc2c(=O)oc3ccccc3c21,9.7,"6.51 µM [rising, single point]",–
O=C(CCNC(=O)c1ccc([N+](=O)[O-])cc1)Nc1nccs1,-1.91,"6.51 µM [falling, partial curve, poor fit]","2.59 µM [falling, partial curve]"
